According to paper PMC8555683:
Positions count from the first letter of the chain named. Names and notes keep the numbering of the source. No constants are given. Whether binding was seen depends on the method and setting. In cells and extracts the contact can be indirect. Some binding calls cover weakened binding; strength is not graded here. Where a sequence is shown, tags or fusion partners need not be part of it.

By UniProt entry, the sequences of proteins in these tests, tags left out.
UniProt P35222: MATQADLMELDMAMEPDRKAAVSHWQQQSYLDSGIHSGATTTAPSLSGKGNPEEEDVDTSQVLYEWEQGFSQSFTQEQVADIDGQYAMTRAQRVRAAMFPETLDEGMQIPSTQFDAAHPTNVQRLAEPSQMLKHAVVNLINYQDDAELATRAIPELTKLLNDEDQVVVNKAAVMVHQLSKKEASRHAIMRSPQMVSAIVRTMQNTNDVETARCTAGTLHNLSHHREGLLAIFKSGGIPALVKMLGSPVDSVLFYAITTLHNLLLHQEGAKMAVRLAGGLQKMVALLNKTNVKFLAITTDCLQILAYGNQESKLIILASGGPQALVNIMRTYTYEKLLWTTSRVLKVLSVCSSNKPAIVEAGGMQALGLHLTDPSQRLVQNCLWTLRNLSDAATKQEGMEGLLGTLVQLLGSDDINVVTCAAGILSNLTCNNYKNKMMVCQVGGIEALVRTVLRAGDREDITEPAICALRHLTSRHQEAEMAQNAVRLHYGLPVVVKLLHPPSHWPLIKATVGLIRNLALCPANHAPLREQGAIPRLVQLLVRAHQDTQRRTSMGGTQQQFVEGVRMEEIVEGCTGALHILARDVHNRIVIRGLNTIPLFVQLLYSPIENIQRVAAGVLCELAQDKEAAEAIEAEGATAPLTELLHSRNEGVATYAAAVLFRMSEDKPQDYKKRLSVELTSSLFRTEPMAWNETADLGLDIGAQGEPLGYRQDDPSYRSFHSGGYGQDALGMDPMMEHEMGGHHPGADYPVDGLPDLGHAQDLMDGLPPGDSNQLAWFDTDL
UniProt O15169: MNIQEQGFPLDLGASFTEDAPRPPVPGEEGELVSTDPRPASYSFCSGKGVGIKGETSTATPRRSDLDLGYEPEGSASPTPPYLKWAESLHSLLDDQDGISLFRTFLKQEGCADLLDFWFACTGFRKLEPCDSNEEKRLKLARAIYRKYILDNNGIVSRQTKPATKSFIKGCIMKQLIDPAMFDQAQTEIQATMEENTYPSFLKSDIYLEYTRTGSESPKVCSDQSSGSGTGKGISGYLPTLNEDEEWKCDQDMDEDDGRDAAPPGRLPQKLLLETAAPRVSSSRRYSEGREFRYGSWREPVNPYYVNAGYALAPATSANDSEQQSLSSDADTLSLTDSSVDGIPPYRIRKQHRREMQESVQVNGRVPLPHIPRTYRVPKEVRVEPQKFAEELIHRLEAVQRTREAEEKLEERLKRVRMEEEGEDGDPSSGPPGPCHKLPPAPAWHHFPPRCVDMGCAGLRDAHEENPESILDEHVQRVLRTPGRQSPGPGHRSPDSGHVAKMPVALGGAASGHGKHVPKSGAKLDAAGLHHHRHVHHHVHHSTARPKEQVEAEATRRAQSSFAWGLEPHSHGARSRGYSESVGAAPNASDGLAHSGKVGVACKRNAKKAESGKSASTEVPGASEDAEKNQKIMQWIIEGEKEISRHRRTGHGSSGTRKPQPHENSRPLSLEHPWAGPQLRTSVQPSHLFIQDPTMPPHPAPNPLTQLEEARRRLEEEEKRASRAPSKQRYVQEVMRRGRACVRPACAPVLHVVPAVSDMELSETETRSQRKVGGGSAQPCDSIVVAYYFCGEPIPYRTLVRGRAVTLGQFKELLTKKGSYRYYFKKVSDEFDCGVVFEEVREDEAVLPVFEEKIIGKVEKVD
UniProt P49674: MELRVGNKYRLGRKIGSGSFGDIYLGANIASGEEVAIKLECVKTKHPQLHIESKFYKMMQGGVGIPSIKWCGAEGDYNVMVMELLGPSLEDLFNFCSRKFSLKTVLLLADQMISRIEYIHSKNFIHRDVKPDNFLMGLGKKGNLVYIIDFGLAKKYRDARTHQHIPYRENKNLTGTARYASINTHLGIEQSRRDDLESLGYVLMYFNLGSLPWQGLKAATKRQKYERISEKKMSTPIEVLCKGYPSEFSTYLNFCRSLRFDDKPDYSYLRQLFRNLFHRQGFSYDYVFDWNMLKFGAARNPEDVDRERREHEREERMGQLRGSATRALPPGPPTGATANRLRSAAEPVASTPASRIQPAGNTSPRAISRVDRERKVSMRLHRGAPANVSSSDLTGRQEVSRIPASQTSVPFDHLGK

Columns and labels:
[1] = target: T1, N-HA-tagged DVL-1 K34R mutant (human) (UniProt O14640); assay: co-IP; HEK293 cells stably expressing HA-DVL-1 WT, K34R or K34Q; immunoprecipitation with HA-tag antibody and Protein A Dynabeads, blotted for DVL-2 and CK1e; lysis buffer 25 mM Tris pH 7.4, 150 mM NaCl, 1 mM EDTA, 1% NP-40, 5% glycerol; 4°C
T1 sequence: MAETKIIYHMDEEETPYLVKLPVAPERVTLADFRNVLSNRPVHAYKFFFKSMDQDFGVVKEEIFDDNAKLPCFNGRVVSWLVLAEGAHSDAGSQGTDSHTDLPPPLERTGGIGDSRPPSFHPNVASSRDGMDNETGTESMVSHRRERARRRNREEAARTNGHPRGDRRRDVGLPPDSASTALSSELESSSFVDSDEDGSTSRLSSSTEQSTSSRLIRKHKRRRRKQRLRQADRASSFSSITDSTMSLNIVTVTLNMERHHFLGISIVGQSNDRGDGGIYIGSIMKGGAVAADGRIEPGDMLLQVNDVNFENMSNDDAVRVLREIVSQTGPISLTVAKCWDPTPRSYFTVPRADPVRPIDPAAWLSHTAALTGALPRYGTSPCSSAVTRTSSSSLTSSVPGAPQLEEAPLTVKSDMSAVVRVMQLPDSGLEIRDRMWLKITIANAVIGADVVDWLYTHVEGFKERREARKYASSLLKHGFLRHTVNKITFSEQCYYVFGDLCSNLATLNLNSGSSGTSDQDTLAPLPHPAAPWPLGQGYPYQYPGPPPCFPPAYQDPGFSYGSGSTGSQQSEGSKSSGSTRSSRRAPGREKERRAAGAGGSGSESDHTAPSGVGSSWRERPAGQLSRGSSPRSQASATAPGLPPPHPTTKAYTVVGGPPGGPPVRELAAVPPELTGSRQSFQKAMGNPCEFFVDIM

[2] = target: T2, N-HA-tagged DVL-1 K34Q mutant (human) (UniProt O14640); assay: as above
T2 sequence: T1 sequence with R34Q

[3] = target: T3, N-terminal HA-epitope tagged DVL-1 wild type (human) (UniProt O14640); assay: as above
T3 sequence: T1 sequence with R34K

[4] = target: β-catenin (human (endogenous in HEK293)) (UniProt P35222); assay: co-IP; reciprocal co-IP: HEK293 cells stably expressing HA-DVL-1 WT, K34R or K34Q; binding partners (Axin1, DVL3, β-catenin, FZD7) pulled down and blotted for HA-tag; lysis buffer 25 mM Tris pH 7.4, 150 mM NaCl, 1 mM EDTA, 1% NP-40, 5% glycerol; 4°C
[5] = target: Axin1 (human (endogenous in HEK293)) (UniProt O15169); assay: as above

## casein kinase 1 (CK1e) (from UniProt P49674 1-416) (enzyme)
[1]
  binding: binds
[2]
  binding: binds
[3]
  binding: binds

B1: N-terminal HA-epitope tagged DVL-1 wild type (protein, UniProt O14640 1-695)
chain: T1 sequence with R34K
[4]
  binding: binds

B2: N-HA-tagged DVL-1 K34R mutant (protein, UniProt O14640 1-695)
chain: T1 sequence
[4]
  binding: binds

B3: N-HA-tagged DVL-1 K34Q mutant (protein, UniProt O14640 1-695)
chain: T1 sequence with R34Q
[4]
  binding: binds
[5]
  binding: binds
